The list shows a part of the results.
Assays:
Assay in all cases: log2 fold change, soluble protein after heating vs DMSO (PISA); higher = thermal stabilisation; K562 cells, 10 uM, 30 min; active = over 0.2 and 3.5 SD of the protein, either way, in both replicates (recomputed)
bafetinib = compound: Cc1ccc(NC(=O)c2ccc(CN3CC[C@H](N(C)C)C3)c(C(F)(F)F)c2)cc1Nc1nccc(-c2cncnc2)n1 [bafetinib]
Method in brief: (§1)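 K562 cells (2×10^6 cells/mL) were treated with 10 μM compound for 30 min, and aliquots were heated for 3 min over 48°C-58°C. Pooled aliquots were extracted in PBS with 0.5% NP-40 at 4°C, and the supernatant after 21,000xg for 90 min was measured by TMTpro 16plex LC-MS/MS with channel sums equalised. Reported thermal stability, relative to control samples and from duplicates, is a log2 fold change.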

Amino acid sequences for entries named in this document (tags omitted). A change or cut given only in a name is not applied to a line headed by its entry.
UniProt P23443: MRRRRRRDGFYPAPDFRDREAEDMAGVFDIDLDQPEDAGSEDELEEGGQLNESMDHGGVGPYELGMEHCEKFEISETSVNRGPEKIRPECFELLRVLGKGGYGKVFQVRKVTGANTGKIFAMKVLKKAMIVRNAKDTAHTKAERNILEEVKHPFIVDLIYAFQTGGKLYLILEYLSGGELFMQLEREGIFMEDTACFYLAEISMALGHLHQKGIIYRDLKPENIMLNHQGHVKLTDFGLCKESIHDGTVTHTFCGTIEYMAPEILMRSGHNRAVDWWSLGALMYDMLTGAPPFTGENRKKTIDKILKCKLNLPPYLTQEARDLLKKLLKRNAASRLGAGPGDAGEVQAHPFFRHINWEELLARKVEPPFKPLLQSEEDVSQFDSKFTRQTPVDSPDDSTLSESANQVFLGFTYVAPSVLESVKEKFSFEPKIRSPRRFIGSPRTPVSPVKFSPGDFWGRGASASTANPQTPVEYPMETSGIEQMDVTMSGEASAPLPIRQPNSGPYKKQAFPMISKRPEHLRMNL
UniProt Q15349, whole entry, looked up: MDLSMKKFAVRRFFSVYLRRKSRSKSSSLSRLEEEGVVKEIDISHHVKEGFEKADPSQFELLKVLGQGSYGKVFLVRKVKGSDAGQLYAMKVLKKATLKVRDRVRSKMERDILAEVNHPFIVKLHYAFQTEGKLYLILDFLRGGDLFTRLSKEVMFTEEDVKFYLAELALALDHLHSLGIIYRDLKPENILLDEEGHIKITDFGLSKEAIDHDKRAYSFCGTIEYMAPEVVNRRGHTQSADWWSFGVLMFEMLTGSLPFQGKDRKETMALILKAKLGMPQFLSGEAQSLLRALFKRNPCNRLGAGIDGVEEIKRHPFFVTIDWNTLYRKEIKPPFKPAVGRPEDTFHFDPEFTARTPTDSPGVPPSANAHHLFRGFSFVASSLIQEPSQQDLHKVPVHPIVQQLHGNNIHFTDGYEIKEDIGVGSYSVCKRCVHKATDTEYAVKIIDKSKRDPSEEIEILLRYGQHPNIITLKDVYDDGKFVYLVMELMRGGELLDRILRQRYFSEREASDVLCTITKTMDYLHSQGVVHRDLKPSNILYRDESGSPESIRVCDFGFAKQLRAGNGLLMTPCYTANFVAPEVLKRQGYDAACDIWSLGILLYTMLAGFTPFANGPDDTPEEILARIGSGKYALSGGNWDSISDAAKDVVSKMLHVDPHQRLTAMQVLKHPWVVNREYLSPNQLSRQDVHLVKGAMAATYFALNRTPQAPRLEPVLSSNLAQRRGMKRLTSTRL
UniProt Q969K3: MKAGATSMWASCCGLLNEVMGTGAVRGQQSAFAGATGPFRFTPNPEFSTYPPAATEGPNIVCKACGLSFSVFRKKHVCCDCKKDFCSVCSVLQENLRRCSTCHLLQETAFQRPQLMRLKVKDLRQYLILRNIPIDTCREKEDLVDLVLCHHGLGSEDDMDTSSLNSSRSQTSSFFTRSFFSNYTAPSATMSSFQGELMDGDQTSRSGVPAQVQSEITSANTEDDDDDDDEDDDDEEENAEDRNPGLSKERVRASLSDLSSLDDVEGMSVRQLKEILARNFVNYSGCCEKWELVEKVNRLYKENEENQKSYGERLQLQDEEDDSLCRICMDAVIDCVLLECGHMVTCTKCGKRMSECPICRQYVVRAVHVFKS
UniProt Q8IZ73: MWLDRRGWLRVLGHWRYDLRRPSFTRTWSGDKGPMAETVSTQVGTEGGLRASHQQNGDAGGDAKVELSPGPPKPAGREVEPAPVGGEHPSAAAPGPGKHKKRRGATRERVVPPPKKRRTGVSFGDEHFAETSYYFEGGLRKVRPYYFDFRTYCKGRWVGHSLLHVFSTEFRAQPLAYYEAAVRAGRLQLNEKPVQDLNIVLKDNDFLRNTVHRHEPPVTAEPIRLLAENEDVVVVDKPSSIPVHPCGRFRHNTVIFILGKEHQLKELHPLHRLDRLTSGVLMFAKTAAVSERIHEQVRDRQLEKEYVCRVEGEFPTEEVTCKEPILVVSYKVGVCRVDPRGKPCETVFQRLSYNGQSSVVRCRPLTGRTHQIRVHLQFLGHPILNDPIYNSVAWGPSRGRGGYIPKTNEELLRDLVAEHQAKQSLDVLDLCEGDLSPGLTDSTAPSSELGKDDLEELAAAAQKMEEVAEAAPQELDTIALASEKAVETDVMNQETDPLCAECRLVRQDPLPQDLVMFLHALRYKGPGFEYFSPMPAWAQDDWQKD
UniProt Q5VZM2, whole entry, looked up: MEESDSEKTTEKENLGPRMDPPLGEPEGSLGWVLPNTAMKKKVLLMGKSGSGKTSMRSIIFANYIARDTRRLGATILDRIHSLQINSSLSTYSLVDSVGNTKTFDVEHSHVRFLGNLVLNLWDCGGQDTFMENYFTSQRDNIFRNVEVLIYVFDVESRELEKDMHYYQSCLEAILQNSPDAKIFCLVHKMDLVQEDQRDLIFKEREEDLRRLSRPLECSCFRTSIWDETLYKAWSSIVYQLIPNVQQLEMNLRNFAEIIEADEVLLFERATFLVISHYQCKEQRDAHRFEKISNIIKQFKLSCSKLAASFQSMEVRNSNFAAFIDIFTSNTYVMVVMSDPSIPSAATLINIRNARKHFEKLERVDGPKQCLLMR
UniProt P35244: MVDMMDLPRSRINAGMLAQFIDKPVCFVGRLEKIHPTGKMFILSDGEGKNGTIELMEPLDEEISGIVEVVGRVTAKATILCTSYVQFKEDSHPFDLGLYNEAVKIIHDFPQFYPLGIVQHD
UniProt Q9H4P4: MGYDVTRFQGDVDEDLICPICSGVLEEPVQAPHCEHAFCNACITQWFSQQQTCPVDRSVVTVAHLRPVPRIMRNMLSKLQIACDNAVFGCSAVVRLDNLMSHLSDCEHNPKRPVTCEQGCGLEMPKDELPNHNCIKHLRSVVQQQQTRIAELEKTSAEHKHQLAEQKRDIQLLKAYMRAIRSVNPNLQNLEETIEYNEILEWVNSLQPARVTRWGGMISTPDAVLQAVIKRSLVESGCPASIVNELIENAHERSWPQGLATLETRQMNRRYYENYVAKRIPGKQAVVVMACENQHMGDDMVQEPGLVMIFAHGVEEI
UniProt Q86WX3: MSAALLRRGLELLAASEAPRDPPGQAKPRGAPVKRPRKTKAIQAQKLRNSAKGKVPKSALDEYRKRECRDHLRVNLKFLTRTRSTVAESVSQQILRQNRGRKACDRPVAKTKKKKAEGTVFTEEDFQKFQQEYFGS
UniProt P27694, whole entry, looked up: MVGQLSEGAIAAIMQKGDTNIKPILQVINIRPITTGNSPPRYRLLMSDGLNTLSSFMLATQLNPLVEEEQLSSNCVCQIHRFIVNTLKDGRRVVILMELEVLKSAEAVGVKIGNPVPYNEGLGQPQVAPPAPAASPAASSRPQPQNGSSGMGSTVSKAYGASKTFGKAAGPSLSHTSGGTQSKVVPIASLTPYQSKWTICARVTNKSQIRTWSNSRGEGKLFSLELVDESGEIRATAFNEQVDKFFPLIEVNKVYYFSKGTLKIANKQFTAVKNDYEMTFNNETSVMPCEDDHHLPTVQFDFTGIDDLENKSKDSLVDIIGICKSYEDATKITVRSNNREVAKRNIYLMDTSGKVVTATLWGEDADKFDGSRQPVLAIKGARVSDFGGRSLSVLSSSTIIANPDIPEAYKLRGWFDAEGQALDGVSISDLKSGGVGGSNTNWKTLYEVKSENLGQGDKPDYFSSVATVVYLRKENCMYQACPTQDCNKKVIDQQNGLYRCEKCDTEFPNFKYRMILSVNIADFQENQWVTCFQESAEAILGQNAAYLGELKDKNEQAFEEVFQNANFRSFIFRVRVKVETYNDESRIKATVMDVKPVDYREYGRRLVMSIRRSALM
UniProt O60942: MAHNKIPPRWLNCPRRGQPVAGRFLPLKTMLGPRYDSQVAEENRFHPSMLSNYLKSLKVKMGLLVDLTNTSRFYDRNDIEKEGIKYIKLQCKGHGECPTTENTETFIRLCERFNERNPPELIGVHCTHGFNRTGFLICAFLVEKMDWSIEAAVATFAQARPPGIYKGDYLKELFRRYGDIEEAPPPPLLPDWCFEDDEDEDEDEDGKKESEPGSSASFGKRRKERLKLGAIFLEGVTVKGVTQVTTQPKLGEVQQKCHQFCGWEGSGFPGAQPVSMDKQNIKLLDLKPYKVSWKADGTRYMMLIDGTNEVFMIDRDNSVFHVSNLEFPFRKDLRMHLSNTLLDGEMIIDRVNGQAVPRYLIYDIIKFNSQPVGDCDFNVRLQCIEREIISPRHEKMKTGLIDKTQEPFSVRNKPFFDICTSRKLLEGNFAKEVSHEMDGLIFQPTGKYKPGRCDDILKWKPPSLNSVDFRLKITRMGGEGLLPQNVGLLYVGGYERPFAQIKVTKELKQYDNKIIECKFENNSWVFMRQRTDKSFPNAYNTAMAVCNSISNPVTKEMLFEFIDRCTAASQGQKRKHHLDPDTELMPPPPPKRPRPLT
UniProt Q9UBF6, whole entry, looked up: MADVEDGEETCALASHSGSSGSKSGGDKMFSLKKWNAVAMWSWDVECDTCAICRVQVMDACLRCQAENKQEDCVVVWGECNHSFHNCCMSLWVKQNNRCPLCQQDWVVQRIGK
UniProt Q01974, whole entry, looked up: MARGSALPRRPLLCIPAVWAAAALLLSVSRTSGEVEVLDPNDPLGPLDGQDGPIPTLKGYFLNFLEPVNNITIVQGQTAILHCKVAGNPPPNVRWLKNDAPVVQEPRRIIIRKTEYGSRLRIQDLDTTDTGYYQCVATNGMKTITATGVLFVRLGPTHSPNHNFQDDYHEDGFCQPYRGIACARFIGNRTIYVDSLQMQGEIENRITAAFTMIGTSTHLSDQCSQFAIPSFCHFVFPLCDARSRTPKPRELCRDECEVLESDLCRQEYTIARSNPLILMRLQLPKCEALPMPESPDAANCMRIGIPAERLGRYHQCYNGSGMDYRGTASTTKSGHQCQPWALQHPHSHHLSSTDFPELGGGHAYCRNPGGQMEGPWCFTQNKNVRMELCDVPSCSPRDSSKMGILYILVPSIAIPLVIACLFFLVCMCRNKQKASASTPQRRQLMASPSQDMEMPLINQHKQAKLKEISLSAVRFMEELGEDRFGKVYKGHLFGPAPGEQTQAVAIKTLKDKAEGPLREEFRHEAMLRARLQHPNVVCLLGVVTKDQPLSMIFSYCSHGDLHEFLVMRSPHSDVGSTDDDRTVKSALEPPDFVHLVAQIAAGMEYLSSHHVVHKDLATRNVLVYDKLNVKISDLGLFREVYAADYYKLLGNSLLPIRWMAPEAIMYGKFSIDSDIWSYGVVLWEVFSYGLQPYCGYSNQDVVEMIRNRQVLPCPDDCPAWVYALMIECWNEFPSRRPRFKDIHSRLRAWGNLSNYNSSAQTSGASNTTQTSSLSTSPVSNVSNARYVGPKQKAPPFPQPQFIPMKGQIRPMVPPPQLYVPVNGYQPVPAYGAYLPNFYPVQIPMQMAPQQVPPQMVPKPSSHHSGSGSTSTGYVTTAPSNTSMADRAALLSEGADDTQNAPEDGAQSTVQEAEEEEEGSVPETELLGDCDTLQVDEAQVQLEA

[1] = compound: Cc1cccc(CC(=O)N2CCc3c2ccc(-c2cn(C)c4ncnc(N)c24)c3F)n1
Method in brief: as §1

nilotinib = compound: Cc1cn(-c2cc(NC(=O)c3ccc(C)c(Nc4nccc(-c5cccnc5)n4)c3)cc(C(F)(F)F)c2)cn1 [nilotinib]
Method in brief: as §1

[2] = compound: Cc1nc(Nc2n[nH]c3c2CN(C(=O)N[C@H](CN(C)C)c2ccccc2)C3(C)C)c2sccc2n1
Method in brief: as §1

dasatinib = compound: Cc1nc(Nc2ncc(C(=O)Nc3c(C)cccc3Cl)s2)cc(N2CCN(CCO)CC2)n1 [dasatinib]
Method in brief: as §1

[3] = compound: Cc1ncc(-c2ccnc(Nc3ccc(S(C)(=O)=O)cc3)n2)n1C(C)C
Method in brief: as §1

[4] = compound: Cn1cc(-c2ccc3c(c2)CCN3C(=O)Cc2cccc(C(F)(F)F)c2)c2c(N)ncnc21
Method in brief: as §1

[5] = compound: Cn1cc(-c2ccc3nnc(C(F)(F)c4ccc5ncccc5c4)n3n2)cn1
Method in brief: as §1

tipifarnib = compound: Cn1cncc1[C@@](N)(c1ccc(Cl)cc1)c1ccc2c(c1)c(-c1cccc(Cl)c1)cc(=O)n2C [tipifarnib]
Method in brief: as §1

mubritinib = compound: FC(F)(F)c1ccc(/C=C/c2nc(COc3ccc(CCCCn4ccnn4)cc3)co2)cc1 [mubritinib]
Method in brief: as §1

Measured: log2 fold change

RPS21 (UniProt P63220)
inactive: bafetinib 0.087 | [1] -0.057 | nilotinib 0.011 | [2] 0.072 | dasatinib 0.1 | [3] -0.012 | [4] -0.009 | [5] -0.004 | tipifarnib 0.017 | mubritinib 0.002

RPL24 (UniProt P83731)
inactive: bafetinib 0.363 | [1] 0.021 | nilotinib 0.056 | [2] 0.158 | dasatinib 0.197 | [3] -0.026 | [4] -0.399 | [5] -0.161 | tipifarnib 0.176 | mubritinib -0.194

RPS29 (UniProt P62273)
inactive: bafetinib 0.257 | [1] -0.047 | nilotinib 0.076 | [2] 0.163 | dasatinib 0.129 | [3] -0.107 | [4] -0.164 | [5] 0.083 | tipifarnib 0.04 | mubritinib -0.202

RPS10 (UniProt P46783)
inactive: bafetinib 0.194 | [1] -0.002 | nilotinib 0.02 | [2] 0.14 | dasatinib 0.053 | [3] -0.074 | [4] -0.075 | [5] -0.002 | tipifarnib 0.113 | mubritinib -0.003

Fetched one by one from the entries so far, 2 records:
RPL24 (UniProt P83731)
inactive: bafetinib 0.363 | [1] 0.021 | nilotinib 0.056 | [2] 0.158 | dasatinib 0.197 | [3] -0.026 | [4] -0.399 | [5] -0.161 | tipifarnib 0.176 | mubritinib -0.194

RPS21 (UniProt P63220)
inactive: bafetinib 0.087 | [1] -0.057 | nilotinib 0.011 | [2] 0.072 | dasatinib 0.1 | [3] -0.012 | [4] -0.009 | [5] -0.004 | tipifarnib 0.017 | mubritinib 0.002

Carrying on.

RPAP1 (UniProt Q9BWH6)
inactive: bafetinib -0.036 | [1] 0 | nilotinib -0.042 | [2] -0.046 | dasatinib -0.067 | [3] 0.007 | [4] 0.002 | [5] -0.082 | tipifarnib -0.011 | mubritinib 0.098

RPL18A (UniProt Q02543)
inactive: bafetinib 0.549 | [1] 0.016 | nilotinib 0.01 | [2] 0.272 | dasatinib 0.352 | [3] -0.053 | [4] -0.618 | [5] -0.192 | tipifarnib 0.478 | mubritinib -0.346

RPS27 (UniProt P42677)
inactive: bafetinib 0.062 | [1] 0.018 | nilotinib -0.024 | [2] 0.102 | dasatinib -0.072 | [3] -0.022 | [4] -0.054 | [5] -0.105 | tipifarnib 0.027 | mubritinib -0.057

RPS6KB1 (UniProt P23443)
inactive: bafetinib -0.033 | [1] 0.009 | nilotinib -0.01 | [2] -0.053 | dasatinib -0.068 | [3] -0.017 | [4] 0.065 | [5] -0.008 | tipifarnib -0.061 | mubritinib 0.033

RPS23 (UniProt P62266)
inactive: bafetinib 0.399 | [1] 0.02 | nilotinib -0.007 | [2] 0.222 | dasatinib 0.164 | [3] -0.049 | [4] -0.343 | [5] -0.012 | tipifarnib 0.127 | mubritinib -0.177

RPS26 (UniProt P62854)
inactive: bafetinib 0.424 | [1] 0.01 | nilotinib -0.003 | [2] 0.285 | dasatinib 0.179 | [3] -0.064 | [4] -0.411 | [5] -0.219 | tipifarnib 0.211 | mubritinib -0.178

RPL14 (UniProt P50914)
inactive: bafetinib 0.595 | [1] 0 | nilotinib 0.039 | [2] 0.261 | dasatinib 0.32 | [3] -0.037 | [4] -0.505 | [5] -0.137 | tipifarnib 0.452 | mubritinib -0.364

RPS16 (UniProt P62249)
inactive: bafetinib 0.279 | [1] -0.026 | nilotinib 0.07 | [2] 0.207 | dasatinib 0.053 | [3] -0.019 | [4] -0.078 | [5] -0.048 | tipifarnib 0.107 | mubritinib -0.066

RPS6KA2 isoform 2 (UniProt Q15349)
inactive: bafetinib -0.112 | [1] 0.15 | nilotinib 0.008 | dasatinib -0.228 | [3] -0.013 | [4] 0.001 | [5] 0.021 | tipifarnib -0.069 | mubritinib 0.085
active: [2] -0.571

RPS27A (UniProt P62979)
inactive: bafetinib 0.147 | [1] 0.023 | nilotinib 0.056 | [2] 0.2 | dasatinib 0.119 | [3] 0.007 | [4] -0.172 | [5] 0 | tipifarnib 0.079 | mubritinib -0.121

RNF34 isoform 2 (UniProt Q969K3)
inactive: bafetinib 0.037 | [1] -0.014 | nilotinib -0.037 | [2] -0.001 | dasatinib 0.124 | [3] 0.015 | [4] -0.077 | [5] -0.061 | tipifarnib -0.005 | mubritinib 0.089

RPUSD2 (UniProt Q8IZ73)
inactive: bafetinib 0.007 | [1] -0.028 | nilotinib 0.025 | [2] 0.028 | dasatinib 0.001 | [3] -0.022 | [4] 0.004 | [5] -0.01 | tipifarnib 0.034 | mubritinib 0.001

RRAGB (UniProt Q5VZM2)
inactive: bafetinib -0.079 | [1] -0.045 | nilotinib 0.031 | [2] -0.003 | dasatinib 0.041 | [3] 0.009 | [4] 0.06 | [5] 0.043 | tipifarnib -0.025 | mubritinib 0.037

RPA3 (UniProt P35244)
inactive: bafetinib 0.023 | [1] 0.086 | nilotinib -0.034 | [2] -0.047 | dasatinib 0.016 | [3] 0.022 | [4] 0.105 | [5] -0.002 | tipifarnib 0.014 | mubritinib 0.024

RNF41 (UniProt Q9H4P4)
inactive: bafetinib -0.09

RPL32 (UniProt P62910)
inactive: bafetinib 0.49 | [1] 0.024 | nilotinib -0.003 | [2] 0.257 | dasatinib 0.234 | [3] -0.045 | [4] -0.497 | [5] -0.142 | tipifarnib 0.275 | mubritinib -0.276

RPS19BP1 (UniProt Q86WX3)
inactive: bafetinib 0.065 | [1] -0.023 | nilotinib 0.008 | [2] 0.193 | dasatinib 0.142 | [3] -0.027 | [4] -0.278 | [5] -0.126 | tipifarnib 0.154 | mubritinib -0.16

RPL9 (UniProt P32969)
inactive: bafetinib 0.499 | [1] 0 | nilotinib -0.001 | [2] 0.3 | dasatinib 0.308 | [3] -0.055 | [4] -0.458 | [5] -0.256 | tipifarnib 0.268 | mubritinib -0.343

RPS9 (UniProt P46781)
inactive: bafetinib 0.318 | [1] -0.001 | nilotinib 0.003 | [2] 0.206 | dasatinib 0.106 | [3] -0.035 | [4] -0.176 | [5] -0.088 | tipifarnib 0.067 | mubritinib -0.09

RPA1 (UniProt P27694)
inactive: bafetinib 0.029 | [1] 0.019 | nilotinib -0.051 | [2] -0.1 | dasatinib 0.077 | [3] 0.016 | [4] -0.004 | [5] 0.015 | tipifarnib -0.074 | mubritinib 0.026

RPL12 (UniProt P30050)
inactive: bafetinib 0.457 | [1] 0.007 | nilotinib -0.013 | [2] 0.223 | dasatinib 0.335 | [3] -0.047 | [4] -0.549 | [5] -0.332 | tipifarnib 0.378 | mubritinib -0.344

RPL28 (UniProt P46779)
inactive: bafetinib 0.538 | [1] 0.017 | nilotinib 0.021 | [2] 0.263 | dasatinib 0.354 | [3] -0.074 | [4] -0.544 | [5] -0.27 | tipifarnib 0.326 | mubritinib -0.341

RNGTT (UniProt O60942)
inactive: bafetinib 0.143 | [1] 0.03 | nilotinib -0.007 | [2] -0.096 | dasatinib -0.172 | [3] 0.042 | [4] 0.015 | [5] 0.028 | tipifarnib -0.07 | mubritinib -0.045

RNF7 (UniProt Q9UBF6)
inactive: bafetinib -0.003 | [1] 0 | nilotinib -0.052 | [2] -0.003 | dasatinib 0.101 | [3] -0.007 | [4] 0.052 | [5] 0.078 | tipifarnib 0 | mubritinib 0.014

RPL30 (UniProt P62888)
inactive: bafetinib 0.542 | [1] 0.003 | nilotinib 0.029 | [2] 0.227 | dasatinib 0.253 | [3] -0.019 | [4] -0.538 | [5] -0.254 | tipifarnib 0.383 | mubritinib -0.375

RPS18 (UniProt P62269)
inactive: bafetinib 0.214 | [1] -0.015 | nilotinib -0.001 | [2] 0.198 | dasatinib 0.069 | [3] -0.054 | [4] -0.088 | [5] -0.001 | tipifarnib 0.031 | mubritinib -0.022

ROR2 (UniProt Q01974)
inactive: bafetinib 0.024 | [1] 0.052 | nilotinib 0.009 | [2] -0.105 | dasatinib -0.124 | [3] 0.063 | [4] 0.043 | [5] -0.041 | tipifarnib 0.03 | mubritinib 0.029

— the supplement of paper PMC10849652
